Data from the supplement of paper PMC12764529.
± gives the half width of the 95% confidence interval. For many entries, trypsin and chymotrypsin gave values far apart.

Experiments:
[1] = folding stability dG unfold from chymotrypsin proteolysis; higher = more stable
In short: (§1)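 Bayesian fitting of sequencing counts gave K50 for each design. Unfolding free energy followed by setting this against a sequence-predicted unfolded-state K50 and a shared folded-state K50, either per protease or with trypsin and chymotrypsin combined. The designs, under 80 residues and lacking cysteine, were digested in a PA-tagged cDNA display format at 11 threefold-diluted protease concentrations and without protease, and only those with AlphaFold2 dimer inter-PAE above 15 were kept.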

[2] = folding stability dG unfold (combined trypsin and chymotrypsin); higher = more stable
In short: as §1

[3] = folding stability dG unfold from trypsin proteolysis; higher = more stable
In short: as §1

Sequence	folding stability dG unfold [1]	folding stability dG unfold [2]	folding stability dG unfold [3]
SAGGSAGGSKETLTIKIKVEVKDENGEKKEVTVTLTIKAETKEEAEALLKELKEKYPNVKVEPSAGGSAGGS [r12_1043_TrROS_Hall]	2.9 ± 0.11 kcal/mol	2.93 ± 0.23 kcal/mol	2.7 ± 0.38 kcal/mol
KVKIVEVVKDPKTKKYVIKIEVEYDEETKQLTVKIEIVDEKTKKVTTIEVKADSLEEAEEAIKKLLPPGLLS [r1_156_TrROS_Hall]	3.28 ± 0.086 kcal/mol	2.79 ± 0.12 kcal/mol	1.04 ± 0.074 kcal/mol
SAMPVAVIPIDPVSGKLTVTVFDPADPRRAVTVDIPLAAVEAAVGKPLSPEEIAALLLEKGIDVVLIGPSAG [r14_809_TrMRF]	1.96 ± 0.021 kcal/mol	1.57 ± 0.1 kcal/mol	-0.0879 ± 0.32 kcal/mol
SAGDEIAELIRERFRKQGLNVEIDVERKPNGGVKLTFYFPEQGWMIEIEVRNGKITDIKIEPFPPEQIKSAG [r5_977_TrROS]	4.47 ± 0.096 kcal/mol	4.1 ± 0.15 kcal/mol	2.19 ± 0.061 kcal/mol
GMSATIVATLPDGSLITVDYRQLPDGSWRATVTIHRPGKAPTTLTFDFSSIEELEAYLREKFPTDITRTEAS [r1_137_JUSTAS]	5.39 ± 0.12 kcal/mol	5.14 ± 0.11 kcal/mol	2.62 ± 0.067 kcal/mol
MKVEIKIEYDKETGKLRIEITIKDKNGKELKIEFEVLPNGKVKVKIYDKNGKLVKEIEFDSLEEALKAILSS [r1_478_TrROS_Hall]	5.47 ± 0.81 kcal/mol	> 6 kcal/mol	3.39 ± 0.17 kcal/mol
EKPEVKIKIELTLNEDGTLTATAYNEETGEIVEVTITVDEDGNVTITVKTKRFKKEEGKIETVEKTITLPKS [r1_45_TrROS_Hall]	3.47 ± 0.11 kcal/mol	2.84 ± 0.38 kcal/mol	1.06 ± 0.13 kcal/mol
SKVVLAHVYVELPNGERRELVVPFDLPPGVTVEELLKALNIPKEVLKKVTIVLVSFDGGPPEVKTVTVTDSA [r9_755_TrMRF]	4.17 ± 0.046 kcal/mol	3.67 ± 0.066 kcal/mol	1.98 ± 0.057 kcal/mol
SAGGSAMTPEEAKNIKVFNFKITVKAKKGDKIPNGKKLKEDEILKVEINIYVAPNGKIIGVDVKVSSAGGSA [r15_12_TrMRF]	5.47 ± 0.24 kcal/mol	5.23 ± 0.38 kcal/mol	3.2 ± 0.13 kcal/mol
SAGGSAGGSAGGSMTSIKITYPDGSTKSASVSVDPNTGKVTTTFTDYTLSPDAKFTTISSAGGSAGGSAGGS [r10_306_JUSTAS]	0.202 ± 0.11 kcal/mol	0.325 ± 0.073 kcal/mol	0.372 ± 0.027 kcal/mol
SAGGRIHIPIPLNQAREILKKLAPDGRDVTAEPQGPSKDNVYYTIEFEPPKNGNEVDIEIWIPPPGDSAGGS [r16_486_TrROS]	-0.234 ± 0.36 kcal/mol	0.0968 ± 0.18 kcal/mol	-0.000485 ± 0.1 kcal/mol
SDNFQPDMTFPVTEIGDDKVTMKYNGKPYYIPTSKITSPNVTVKITDGTVSEVSSPSPSPLPPENIKKLSSA [r9_842_JUSTAS]	-0.293 ± 0.35 kcal/mol	-0.263 ± 0.42 kcal/mol	-0.705 ± 0.24 kcal/mol
SAGGSAGGSAGKIKIEKIEKIEIKYNPKTKKYTIRVTLKNGKKVEIEFSSLEEALEALKKSAGGSAGGSAGG [r11_339_TrROS_Hall]	4.704 ± 0.04 kcal/mol	4.35 ± 0.078 kcal/mol	2.29 ± 0.036 kcal/mol
SAGGGIKELLKKLPGIKKVEVKDDSVTITVEVDGKLYKIEIKVEKVKKKDGKEIKKVEIKIEEVELPSAGGS [r16_65_TrROS_Hall]	4.67 ± 0.21 kcal/mol	4.55 ± 0.28 kcal/mol	2.22 ± 0.16 kcal/mol
SAGGGKTVEVTIEVPGENAVVYIKVYDKDKPISVFPAEFIPPTGTATFTIDVPEDAEITAEVALPEEASAGG [r13_977_TrMRF]	0.904 ± 0.14 kcal/mol	0.687 ± 0.091 kcal/mol	0.106 ± 0.033 kcal/mol
SARIRIMVPPDFIMVRTPKGKMRMVDDPEEIEEIIKDILPVPIEIEPLPPNSPKFQKMMEMMMREQNGPSAG [r14_235_TrROS]	0.158 ± 0.23 kcal/mol	0.0355 ± 0.18 kcal/mol	-0.264 ± 0.48 kcal/mol
SAGGSQEEAEELLAREVVAPPVTDPSTGRTYPGTRLRVLDVELDENSESIRVRAETPEGEVELLLESAGGSA [r2_314_JUSTAS]	1.29 ± 0.055 kcal/mol	0.895 ± 0.073 kcal/mol	-0.901 ± 0.82 kcal/mol
SAGGMIQIERDKDGYLRITIWVPGDPKEAEEIAENIIELLQDLGFDEVDIDYEPFDGGVMIEITVKVSAGGS [r8_113_TrROS]	3.49 ± 0.083 kcal/mol	3.29 ± 0.077 kcal/mol	2.9 ± 0.12 kcal/mol
ADFRVTEESPEGVVTQTTTVALPDGTSRTLTYSYSKDASLTSVTVSYTPDSVTTTTTPVTPVPPGSPELAGS [r1_53_JUSTAS]	0.24 ± 0.19 kcal/mol	0.0981 ± 0.13 kcal/mol	-0.411 ± 0.17 kcal/mol
SAGGSAGGSAKVKIKILSKTEDTLTLLIELPDNKVILIKYKIKPTKDGGFELEVTEVIELPSAGGSAGGSAG [r3_116_TrMRF]	4.61 ± 0.17 kcal/mol	4.16 ± 0.2 kcal/mol	2.6 ± 0.12 kcal/mol
SAGGSARFTSIDIEKHGDYISVRATWRNPNGNWQEMNIMIRVPPVPPPPPIKPKRDPDNGEPKYDNSAGGSA [r15_335_TrROS]	4.47 ± 0.43 kcal/mol	3.47 ± 0.33 kcal/mol	2.19 ± 0.087 kcal/mol

Two neighbouring entries out of the list so far, for reference:
Sequence	folding stability dG unfold [1]	folding stability dG unfold [2]	folding stability dG unfold [3]
SAGDEIAELIRERFRKQGLNVEIDVERKPNGGVKLTFYFPEQGWMIEIEVRNGKITDIKIEPFPPEQIKSAG [r5_977_TrROS]	4.47 ± 0.096 kcal/mol	4.1 ± 0.15 kcal/mol	2.19 ± 0.061 kcal/mol
GMSATIVATLPDGSLITVDYRQLPDGSWRATVTIHRPGKAPTTLTFDFSSIEELEAYLREKFPTDITRTEAS [r1_137_JUSTAS]	5.39 ± 0.12 kcal/mol	5.14 ± 0.11 kcal/mol	2.62 ± 0.067 kcal/mol
